From PubChem BioAssay AID540256 (National Center for Advancing Translational Sciences (NCATS), 2011)
“And” between values parts separate entries of the source, which are not always exact repeats. Equal entries are not always repeated. In all, about 300,000 compounds went through this assay and about 3,700 (1.2%) were called active. Inconclusive results, whose numbers are uncertain, are shown with a selection of clear calls. Calls follow the shape of the full dose curve; tested in HEK293 cells. Potencies beside an inconclusive call are fits to weak or partial responses and may not hold up.

assay: qHTS for Inhibitors of binding or entry into cells for Lassa Virus; conditions: Lassa virus pseudotype entry inhibition, cell reporter; activity change, negative = inhibition: at 37.9 µM (top of the series) unless noted; also: nearly all actives have a fitted effect of over 50% in size
% is scaled to controls: 0 for no effect and ±100 for the full control effect; potency is read from the fitted curve at half-maximal effect.

SMILES	activity change, negative = inhibition	Potency
COc1ccc(CC(=O)Nc2sc3c(c2C(N)=O)CCCC3)cc1	inactive: -16.5% [at 46.1 µM]	
CCOc1ccc(S(=O)(=O)N2CCC(c3ccncc3)CC2)cc1	inactive: -12.3% [at 46.1 µM]	
Cc1ccsc1CN(C)CC(=O)Nc1ccc([N+](=O)[O-])cc1Cl		inconclusive: 2.82 µM [inhibitor, partial curve, poor fit]
CCC1(C)Cc2c(sc3c2c2ncnn2c2nnc(SCC(=O)NCc4ccco4)n32)CO1 (stereo unspecified)		inconclusive: 25.1 µM [inhibitor, partial curve, poor fit]
COc1ccc(OCC(=O)N/N=C/C=C/c2ccccc2)cc1		inconclusive: 8.2 µM [inhibitor, partial curve]
CCOC(=O)C1=C(C)N(C)C(C)=C(C(=O)OCC)C1c1ccc(C(=O)OC)cc1		inconclusive: 8.91 µM [inhibitor, partial curve, poor fit]
COc1ccc(-c2noc(CN(C)S(=O)(=O)c3ccc(C)cc3)n2)cc1		inconclusive: 16.4 µM [inhibitor, partial curve, poor fit]
COc1cccc(NC(=S)N(Cc2ccccn2)Cc2ccccc2Cl)c1		inconclusive: 35.5 µM [inhibitor, single point]
CCCCCCC(=O)OCC(=O)c1ccc2c(c1)NC(=O)CO2		inconclusive: 0.794 µM [inhibitor, full curve, poor fit]
CN(C)S(=O)(=O)c1cc(NC(=O)CN2CCN(c3ccccc3F)CC2)ccc1Cl		inconclusive: 6.31 µM [inhibitor, partial curve, poor fit]
Cc1ccc(C(=O)NC(C)c2ccccc2)cc1S(=O)(=O)N1CCOCC1 (stereo unspecified)		inconclusive: 10 µM [inhibitor, partial curve, poor fit]
COc1ccc(S(=O)(=O)NC(C(C)C)C(C)C)cc1OC	inactive: 5.93%	
O=C(CN1CCCc2ccccc21)N/N=C/c1ccccc1O		inconclusive: 8.91 µM [inhibitor, partial curve, poor fit]
CCCCN(C(=O)c1cccc(S(=O)(=O)N2CCN(Cc3ccccc3)CC2)c1)c1ccccc1		inconclusive: 31.6 µM [inhibitor, single point]
CC(C)c1ccc(OC(=O)NCCO)cc1		inconclusive: 11.2 µM [activator, partial curve, poor fit]
COC(=O)CC(=O)CSc1nc2cc(C(=O)NCC(C)C)ccc2c(=O)n1CCc1ccccc1		inconclusive: 20 µM [inhibitor, single point]
CCN1CCN(c2ccc(NC(=O)c3ccc(Cl)c(S(=O)(=O)N4CCCC4)c3)cc2)CC1		inconclusive: 35.5 µM [inhibitor, single point]
CC(C)CN(C(=O)COC(=O)c1cc(=O)[nH]c2ccccc12)c1c(N)n(Cc2ccccc2)c(=O)[nH]c1=O	inactive: -3.66%	
COc1cccc(CN(CC(=O)NC2CCCCC2)C(=O)c2csnn2)c1		inconclusive: 3.16 µM [inhibitor, partial curve, poor fit]
O=C(CN(c1ccc(F)cc1)S(=O)(=O)c1ccc2c(c1)OCCO2)Nc1cccnc1		inconclusive: 5.01 µM [inhibitor, partial curve]
COc1cccc(NC(=O)CSc2c3c(nc4ccccc24)CCCC3)c1		inactive and inconclusive: 11.2 µM [inhibitor, partial curve, poor fit]
Cc1cccc(NC(=O)CN2C(=O)CSc3ccc(S(=O)(=O)N4CCCC4)cc32)c1C	inactive: 15.9% [at 46.1 µM]	

3 of the compounds above, as comma-separated lines:
SMILES,"activity change, negative = inhibition",Potency
CN(C)S(=O)(=O)c1cc(NC(=O)CN2CCN(c3ccccc3F)CC2)ccc1Cl,,"inconclusive: 6.31 µM [inhibitor, partial curve, poor fit]"
COc1ccc(S(=O)(=O)NC(C(C)C)C(C)C)cc1OC,inactive: 5.93%,
CCN1CCN(c2ccc(NC(=O)c3ccc(Cl)c(S(=O)(=O)N4CCCC4)c3)cc2)CC1,,"inconclusive: 35.5 µM [inhibitor, single point]"

(more compounds)

SMILES	activity change, negative = inhibition	Potency
CC1CCN(c2ccc(S(=O)(=O)NC3=NCCCCC3)cc2[N+](=O)[O-])CC1		inconclusive: 0.112 µM [inhibitor, full curve, poor fit]
Cc1[nH]nc(Nc2ccccc2)c1[N+](=O)[O-]		inconclusive: 29.1 µM [inhibitor, single point]
O=C1CC(NCCN2CCOCC2)C(=O)N1Cc1ccc(N2CCCC2=O)cc1 (stereo unspecified)		inconclusive: 8.91 µM [activator, partial curve, poor fit]
CCOC(=O)SC1=N/C(=C\c2ccc(N(C)C)cc2)C(=O)S1		inconclusive: 0.13 µM [inhibitor, full curve, poor fit]
CCOc1ccc(N(CC)S(=O)(=O)N2CCCC(C(=O)Nc3ccc(OC)c(Cl)c3)C2)cc1 (stereo unspecified)		inconclusive: 35.5 µM [inhibitor, single point]
O=C(CNC(=O)c1ccc(Cl)cc1)NNc1c(F)c(F)cc(F)c1F	inactive: 3.16% [at 46.1 µM]	
COc1ccsc1C(=O)NCCN1CCOCC1	inactive: -6.25% [at 46.1 µM]	
CC(C)c1ccccc1NC(=O)COC(=O)c1cc([N+](=O)[O-])ccc1N1CCOCC1	inactive: -9.07%	
Cc1[nH]c2ccccc2c1NC(=O)CN1CCN(c2cccc(C(F)(F)F)c2)CC1		inconclusive: 10 µM [inhibitor, partial curve]
Cc1ccc(C2CCN(C(=O)c3cnn(-c4ccc(C)c(C)c4)c3C3CCN(C(=O)OC(C)(C)C)CC3)C2)cc1 (stereo unspecified)		inconclusive: 10 µM [inhibitor, single point]
NC(=S)N/N=C/c1c(O)c(Br)cc2oc3c(c12)CCCC3		inconclusive: 7.08 µM [inhibitor, partial curve, poor fit]
O=C(/C=C/c1ccc(S(=O)(=O)N2CCOCC2)cc1)Nc1cc(F)ccc1F	inactive: -29.2% [at 46.1 µM]	
Cc1cc(C)c(OCCOCCn2c(-c3ccc(Cl)cc3)nc3ccccc3c2=O)c(C)c1		inconclusive: 35.5 µM [activator, single point]
CSc1nc(SCCO)c2sc3nc(-c4ccco4)c4c(c3c2n1)CC(C)(C)OC4	inactive: -0.259%	
COc1ccc(NC(=O)c2oc3ccccc3c2NC(=O)c2ccc(OC)c(OC)c2)c(OC)c1	inactive: 5.89%	
CCOC(=O)c1c(CN2CCOCC2)n(-c2ccccc2)c2cc(Br)c(OC)cc12		active: 9.2 µM
COc1cc(-c2nc(-c3ccc(NC(=O)c4ccc5c(c4)OCO5)cc3)no2)cc(OC)c1OC	inactive: -6.48%	
FC(F)Oc1ccc(-n2cc(-c3ccccc3)[n+]3c2CCCCC3)cc1		inconclusive: 35.5 µM [inhibitor, single point]
CCC(=O)Nc1ccc(S(=O)(=O)N2CCN(c3ccc(F)cc3)CC2)cc1	inactive: -5.11%	
Cc1cccc(NC(=O)N2CCC(CN3CCCCCC3)CC2)c1C	inactive: 21.9% [at 46.1 µM]	
O=C(Cc1ccc(Br)cc1)NC1CCCCC1	inactive: 1.24%	
Cc1cc(N=Nc2ccc3ccccc3c2)ccc1O		inconclusive: 35.5 µM [inhibitor, single point]

SMILES	activity change, negative = inhibition	Potency
CC1(C)C(Cl)C(=O)C(C(=O)c2ccccc2)C(=O)C1Cl (stereo unspecified)	inactive: 22.2% [at 46.1 µM]	
COc1cc(N=Nc2c(O)c3ccccc3[nH]c2=O)c(OC)cc1N=Nc1ccccc1	inactive: 5.69% [at 46.1 µM]	
CSc1nc2nccc(-c3ccc(-c4ccccc4)cc3)n2n1		inconclusive: 8.91 µM [inhibitor, partial curve]
CCOC(=O)c1cnc2c(ccc3ccccc32)c1Nc1ccc(N(C)C)cc1	inactive: 20.3% [at 46.1 µM]	
CC1c2cc3c(cc2CCN1CC(=O)Nc1ccc(S(=O)(=O)N2CCCC2)cc1)OCCCO3 (stereo unspecified)		inconclusive: 0.562 µM [inhibitor, full curve, poor fit]
COc1ccccc1C1C2=C(CCCC2=O)N(CC(=O)O)C2=C1C(=O)CCC2		inconclusive: 17.8 µM [activator, single point]
N#C/C(=C\c1cccc(O)c1)c1nc2ccccc2o1		inconclusive: 35.5 µM [inhibitor, partial curve, poor fit]
CCc1ccc(OCC2c3cc(OC)c(OC)cc3CCN2C(=O)c2ccc(S(=O)(=O)N3CCCC3)cc2)cc1 (stereo unspecified)		inconclusive: 1.58 µM [inhibitor, full curve, poor fit]
CCCOc1cccc(C(=O)Nc2cccc3ncccc23)c1	inactive: -15.9% [at 46.1 µM]	
COC(=O)NNC(=O)c1ccc(C)c(Br)c1		inconclusive: 3.26 µM [inhibitor, single point]
COc1ccc(CCNC(=O)CSc2nc(-c3ccc(OC)c(OC)c3)ccc2C#N)cc1		inconclusive: 1.41 µM [inhibitor, full curve, poor fit]
CC(C)N(Cc1ccccc1)C(=O)c1nc(-c2ccc(Cl)cc2)n2c1CCCCC2		inconclusive: 35.5 µM [inhibitor, single point]
CN1CCN(CCC(=O)N2c3ccccc3Sc3ccc(C(F)(F)F)cc32)CC1	inactive: -7.61%	
CCCCCCOc1ccc(CN2CCN(CCO)CC2)cc1		inconclusive: 29.1 µM [inhibitor, single point]
COc1ccc(C(=O)Nc2oc(-c3ccccc3)c(-c3ccccc3)c2C#N)cc1		inconclusive: 35.5 µM [inhibitor, single point]
CC(C(=O)OCC(=O)c1c(N)n(C)c(=O)n(C)c1=O)N1C(=O)c2ccccc2C1=O (stereo unspecified)		inconclusive: 7.08 µM [inhibitor, partial curve, poor fit]
Nc1c(C(=O)Nc2ccccc2Br)sc2nc(-c3cccs3)ccc12		inconclusive: 7.94 µM [activator, partial curve, poor fit]
COc1ccc(N2CCN(C(CNS(=O)(=O)c3ccc(OC)c(C)c3)c3ccco3)CC2)cc1 (stereo unspecified)		active: 5.62 µM
Cc1cccn2c(=O)c3cc(C(=O)NCC(C)C)sc3nc12		inconclusive: 10 µM [inhibitor, partial curve, poor fit]
COc1ccc(C(=O)NC(=S)Nc2cc3oc4ccccc4c3cc2OC)cc1	inactive: 3.26% [at 46.1 µM]	
CNC(=O)C1CC(=O)N(c2ccc(OCC(=O)N3CCCC3)cc2)C1 (stereo unspecified)	inactive: 7.39% [at 46.1 µM]	
COc1ccc(S(=O)(=O)N2CCCC2CNC(=O)C(=O)NCc2ccccc2Cl)cc1 (stereo unspecified)		inconclusive: 12.6 µM [inhibitor, partial curve]

Among those listed so far, these have a CF3 group.
SMILES	activity change, negative = inhibition	Potency
Cc1[nH]c2ccccc2c1NC(=O)CN1CCN(c2cccc(C(F)(F)F)c2)CC1		inconclusive: 10 µM [inhibitor, partial curve]
CN1CCN(CCC(=O)N2c3ccccc3Sc3ccc(C(F)(F)F)cc32)CC1	inactive: -7.61%	
